Laboratory results reported in publication PMC6510891, “Functional duplication of Rap1 in methylotrophic yeasts”.
For some of these results: No signal at the amounts used counts as a negative. Tags and fusion partners may be left off the protein sequences shown. For some of these results: Weaker means in comparison with the reference protein, sequence or condition of that experiment.

Experiments:
[1] = molecular target: T1, HpRap1A (Hansenula polymorpha DL-1) (UniProt W1Q7Z6); experiment: SPR; settings: NB in table, text: at least 30-fold lower efficiency than HpRap1B; SPR: 10 mM HEPES-NaOH pH 7.5, 150 mM NaCl, 0.5 mM DTT, 0.05% Tween 20, 1 mg/ml BSA, 0.02 mg/ml salmon sperm DNA; competition 2 nM protein with 20 or 200 nM competitor; recombinant protein; residues 1-613
T1 sequence (looked up): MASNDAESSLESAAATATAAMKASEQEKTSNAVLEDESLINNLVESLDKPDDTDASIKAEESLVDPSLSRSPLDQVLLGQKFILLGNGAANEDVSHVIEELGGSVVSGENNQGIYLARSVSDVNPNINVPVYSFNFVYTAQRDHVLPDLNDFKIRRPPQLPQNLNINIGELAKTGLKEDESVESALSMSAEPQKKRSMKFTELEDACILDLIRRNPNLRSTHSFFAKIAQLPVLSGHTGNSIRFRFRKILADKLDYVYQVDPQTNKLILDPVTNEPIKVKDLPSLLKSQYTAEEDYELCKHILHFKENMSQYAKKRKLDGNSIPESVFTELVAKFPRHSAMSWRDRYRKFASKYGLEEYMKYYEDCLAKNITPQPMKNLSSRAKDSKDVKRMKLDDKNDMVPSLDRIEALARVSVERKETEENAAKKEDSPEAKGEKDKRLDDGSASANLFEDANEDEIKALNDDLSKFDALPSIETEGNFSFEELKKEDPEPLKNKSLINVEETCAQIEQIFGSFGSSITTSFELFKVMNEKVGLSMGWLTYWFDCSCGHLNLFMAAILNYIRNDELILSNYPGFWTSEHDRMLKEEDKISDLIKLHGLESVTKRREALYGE

[2] = molecular target: T2, HpRap1B (Hansenula polymorpha DL-1) (UniProt W1QDN2); experiment: competition SPR; settings: score + vs PICKU surface; EMSA: 20 mM HEPES-NaOH pH 7.5, 50 mM NaCl, 0.2 mg/ml BSA, 5% glycerol, 0.1 mg/ml salmon sperm DNA, room temperature; recombinant protein; residues 1-576
T2 sequence (looked up): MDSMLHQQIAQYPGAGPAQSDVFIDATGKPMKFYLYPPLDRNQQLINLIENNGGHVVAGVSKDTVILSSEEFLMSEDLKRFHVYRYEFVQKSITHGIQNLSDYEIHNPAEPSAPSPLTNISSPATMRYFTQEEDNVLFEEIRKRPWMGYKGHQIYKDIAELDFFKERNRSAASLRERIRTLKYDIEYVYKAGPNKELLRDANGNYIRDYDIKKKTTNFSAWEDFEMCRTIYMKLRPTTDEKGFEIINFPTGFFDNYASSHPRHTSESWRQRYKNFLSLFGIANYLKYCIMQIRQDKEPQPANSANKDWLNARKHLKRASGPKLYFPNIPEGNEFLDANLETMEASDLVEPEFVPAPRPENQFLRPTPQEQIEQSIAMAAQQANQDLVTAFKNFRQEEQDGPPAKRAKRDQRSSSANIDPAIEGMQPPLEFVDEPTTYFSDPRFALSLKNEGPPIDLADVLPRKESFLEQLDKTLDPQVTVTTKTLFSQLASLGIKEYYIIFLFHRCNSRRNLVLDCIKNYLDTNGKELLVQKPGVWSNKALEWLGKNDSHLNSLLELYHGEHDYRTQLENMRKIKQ

[3] = molecular target: T1, HpRap1A (Hansenula polymorpha DL-1); experiment: competition SPR; settings: score + vs VIIrAbs surface; EMSA: 20 mM HEPES-NaOH pH 7.5, 50 mM NaCl, 0.2 mg/ml BSA, 5% glycerol, 0.1 mg/ml salmon sperm DNA, room temperature; recombinant protein; residues 1-613

Row | Sequence | binding result [2] | further results
1 | GGGTGGCGGGGTGGCGGGGTGGCGGGGTGGCG / CGCCACCCCGCCACCCCGCCACCCCGCCACCCCCTCTACGTCCTCCTGCTCC [HANPO4 (SPR)] | – | binding result [1]: no binding
2 | ACTTCTTGGTGTACGGATGTCTA (double strand) [CANAL (competitor)] | binds more weakly | –
3 | GTGTTGAGGTGTAGGGATGTTGA (double strand) [DEBHA] | binds more weakly | –
4 | TGTGAGTGGTGTGAGTGGTGTGAGTGG (double strand) [PACTA] | binds more weakly | –
5 | CTCGCTTGGTGTACGGATGCAGA (double strand) [CANMA] | binds more weakly | –
6 | GGGTGGCGGGGTGGCGGGGTGGCGGGGTGGCG (double strand) [HANPO4 (competitor)] | binds more weakly | –
7 | GTGTGTGGGTGTGTGGGTGTGTG (double strand) [SACCE (competitor)] | – | binding result [3]: binds more weakly
